{
  "source": "PubChem BioAssay AID504467",
  "about": "(National Center for Advancing Translational Sciences (NCATS), 2011)",
  "note": "Screen size: about 330,000 compounds; about 7,700 (2.3%) were called active. The inconclusive results got no clear call from the source; some entries with a clear call stand among them for comparison. The call rests on the fitted dose curve; in most records, active means well fitted inhibition curve with a large enough effect; inconclusive means small, poorly fitted or top-dose-only effect, or effect the other way; inactive means flat fitted curve, though single readings scatter. Where the call is inconclusive, the potency comes from a doubtful curve fit. Potency means the concentration at half of the fitted maximal effect.",
  "data": [
    {"experiment": "qHTS screen for small molecules that inhibit ELG1-dependent DNA repair in human embryonic kidney (HEK293T) cells expressing luciferase-tagged ELG1; further: nearly all actives have a fitted effect of over 55% in size", "details": "HEK293T ELG1-luciferase reporter, luminescence, 16 h, DNA damage induced by 5-fluorouridine; series mostly up to 46.1 µM", "in_short": "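Cells (2,000 per well) received 5-fluorouridine plus test compound or DMSO and were incubated 16 hr at 37 °C, 5% CO2. Luciferase activity was read by luminescence 30 min after ONE-Glo addition; signal suppression marked inhibition of damage-induced ELG1 function.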", "values": [
      {"smiles": "COC(=O)C(C)N(C#N)c1nc(C)nc(C)n1", "note": "(configuration not stated)", "Potency": "inconclusive: 0.651 µM [activator, single point]"},
      {"smiles": "CCCCOC(=O)c1ccc(NC(=O)/C=C/c2cccs2)cc1", "Potency": "inconclusive: 23.1 µM [inhibitor, single point]"},
      {"smiles": "Cc1cc(CNC(=O)Cc2c(F)cccc2Cl)nn1C", "Potency": "inconclusive: 25.9 µM [activator, single point]"},
      {"smiles": "CCOC(=O)N1CCN(S(=O)(=O)c2ccc(OC)c3ccccc23)CC1", "Potency": "inconclusive: 18.4 µM [inhibitor, single point]"},
      {"smiles": "CN1CCN(c2ccc(NC(=S)NC(=O)/C=C/c3ccco3)cc2)CC1", "Potency": "inconclusive: 16.4 µM [activator, partial curve]"},
      {"smiles": "Cc1ccc(NC(=O)CN(C(=O)N2CCN(C)CC2)S(=O)(=O)c2ccc(C)cc2)cc1", "Potency": "inactive"},
      {"smiles": "COc1ccc(OC)c(NC(=O)CN(c2ccc(C)cc2)S(=O)(=O)c2c(C)noc2C)c1", "Potency": "inconclusive: 29.1 µM [inhibitor, single point]"},
      {"smiles": "Cc1cc(C(=O)N/N=C2\\CCCC(C)C2)n[nH]1", "note": "(configuration not stated)", "Potency": "inconclusive: 32.6 µM [activator, partial curve, poor fit]"},
      {"smiles": "O=c1c2cc(Br)ccc2nc(-c2cccc(Cl)c2)n1O", "Potency": "active: 18.3 µM"},
      {"smiles": "O=C(c1cc2nc(-c3ccco3)cc(C(F)(F)F)n2n1)N1CCN(c2ccc(F)cc2)CC1", "Potency": "inconclusive: 18.4 µM [inhibitor, single point]"},
      {"smiles": "CC1(C)CC(=O)C2=C(C1)NC(SCC(=O)Nc1ccccc1)=C(C#N)C2c1ccco1", "note": "(configuration not stated)", "Potency": "inconclusive: 5.8 µM [inhibitor, partial curve, poor fit]"},
      {"smiles": "CC(=O)c1sc(NC(=O)CSCc2c(C)noc2C)nc1-c1ccccc1", "Potency": "inactive"},
      {"smiles": "Cc1cccc(NS(=O)(=O)c2ccc(C)c(C(=O)N(C)C3CCN(C)CC3)c2)c1", "Potency": "inconclusive: 20.6 µM [activator, partial curve, poor fit]"},
      {"smiles": "COc1ccc(NC(=O)c2sccc2SCC#N)cc1", "Potency": "inconclusive: 16.4 µM [activator, partial curve, poor fit]"},
      {"smiles": "COc1ccc(NC(=O)c2cccs2)cc1O", "Potency": "inconclusive: 13 µM [activator, partial curve]"},
      {"smiles": "O=C1CCc2cc(S(=O)(=O)NC(Cc3ccccc3)C(=O)NCC3CCCO3)ccc2N1", "note": "(configuration not stated)", "Potency": "inactive"},
      {"smiles": "COc1ccc(Nc2cc3n(c(=O)n2)CCc2cc(OC)c(OC)cc2-3)c(C)c1", "Potency": "inconclusive: 16.4 µM [inhibitor, partial curve]"},
      {"smiles": "COc1ccc(C(=O)O/N=C(\\N)c2ccc(Cl)cc2)cc1", "Potency": "inconclusive: 11.6 µM [activator, partial curve]"},
      {"smiles": "N#Cc1ccc(Oc2ccc(-c3cnc4ccccc4n3)cc2)cc1C#N", "Potency": "inconclusive: 0.58 µM [inhibitor, partial curve, poor fit]"},
      {"smiles": "O=C(Nc1ccc(C(F)(F)F)cc1)c1ccccc1Br", "Potency": "inconclusive: 16.4 µM [activator, single point]"},
      {"smiles": "O=C(COC(=O)c1ccccn1)Nc1nc(-c2ccccc2)cs1", "Potency": "inconclusive: 23.1 µM [activator, partial curve]"},
      {"smiles": "CC(=O)Nc1ccc2c(COC(=O)[C@H](C)N3C(=O)C4CCCCC4C3=O)cc(=O)oc2c1", "note": "(some centres not stated)", "Potency": "inconclusive: 10.3 µM [activator, partial curve, poor fit]"},
      {"smiles": "CCc1ccc(OCC(=O)NC(NC(=S)Nc2ccc(Cl)cc2)C(Cl)(Cl)Cl)cc1", "note": "(configuration not stated)", "Potency": "inconclusive: 25.9 µM [inhibitor, single point]"},
      {"smiles": "O=C(CCCn1cnc([N+](=O)[O-])n1)Nc1cc(Cl)ccc1O", "Potency": "inactive"},
      {"smiles": "O=C(NCC(=O)N1CCN(c2ncccn2)CC1)c1cccs1", "Potency": "inconclusive: 23.1 µM [activator, partial curve]"},
      {"smiles": "COc1ccc(-c2cc(C(=O)NC(C)c3ccccn3)c3ccccc3n2)cc1OC", "note": "(configuration not stated)", "Potency": "active: 16.4 µM"},
      {"smiles": "CC(C)c1ccc(OCC(=O)Nc2cccc3c2CCCC3)cc1", "Potency": "inconclusive: 5.17 µM [inhibitor, single point]"},
      {"smiles": "Cc1cccc(-c2nnc(NC(=O)c3cccs3)s2)c1", "Potency": "inconclusive: 13 µM [activator, partial curve]"},
      {"smiles": "O=C(CNc1ccc2c(c1)OCO2)N/N=C\\c1ccccc1Cl", "Potency": "inactive"},
      {"smiles": "COc1ccc2nc(NC(=O)c3c(C)noc3C)sc2c1", "Potency": "inconclusive: 11.6 µM [activator, partial curve]"},
      {"smiles": "O=C(c1ccc(S(=O)(=O)Cc2cc(F)ccc2F)c([N+](=O)[O-])c1)N1CCCC1", "Potency": "inactive"},
      {"smiles": "Cc1ccsc1C(=O)OCC(=O)c1cc(C)n(C)c1C", "Potency": "inconclusive: 0.231 µM [activator, partial curve]"},
      {"smiles": "Cc1cc(C(=O)O)ccc1N/C=C1\\CCCC(C)C1=O", "note": "(configuration not stated)", "Potency": "inconclusive: 0.411 µM [activator, full curve]"},
      {"smiles": "O=C(CCNS(=O)(=O)c1ccccc1C(F)(F)F)N1CCN(S(=O)(=O)c2cccc(F)c2)CC1", "Potency": "inactive"},
      {"smiles": "CCN(C(=O)COC(=O)c1cccc(S(=O)(=O)NCc2ccccc2)c1)c1ccccc1", "Potency": "inactive"},
      {"smiles": "O=C(CCS(=O)(=O)c1ccccc1)N(CCCN1CCOCC1)c1nc2ccc(F)cc2s1", "Potency": "inconclusive: 4.61 µM [activator, single point]"},
      {"smiles": "CC1=CC2=NC(=O)/C(=C\\c3cc(C)n(-c4cccc(Cl)c4)c3C)C(=N)N2O1", "Potency": "inconclusive: 0.517 µM [inhibitor, partial curve]"},
      {"smiles": "CC(=O)n1c(Cl)c(NC(=O)CCl)c2ccccc21", "Potency": "active: 25.9 µM"},
      {"smiles": "Cc1cccc(N2CCN(C(=O)CCC(=O)N3CCOc4ccc(Cl)cc43)CC2C)c1", "note": "(configuration not stated)", "Potency": "inconclusive: 29.1 µM [inhibitor, single point]"},
      {"smiles": "Cc1ccc(S(=O)(=O)N(C)C)cc1NC(=O)COC(=O)C1CC1", "Potency": "inactive"},
      {"smiles": "CCOC(=O)c1c(C)nn(-c2ccc(NC(=O)/C=C/C(=O)O)cc2)c1C", "Potency": "inconclusive: 25.9 µM [activator, single point]"},
      {"smiles": "COc1ccc(/C=N/N=C2\\CC3CCC2(C)C3(C)C)cc1O", "note": "(configuration not stated)", "Potency": "inconclusive: 23.1 µM [activator, single point]"},
      {"smiles": "COc1cc(C(c2sc3nc(C)nn3c2O)N2CCN(c3ccccc3)CC2)cc(OC)c1OC", "note": "(configuration not stated)", "Potency": "inconclusive: 20.6 µM [inhibitor, partial curve, poor fit]"},
      {"smiles": "CNc1ccc2nnc(C(F)(F)C(F)(F)C(F)(F)F)n2n1", "Potency": "inactive"},
      {"smiles": "C[C@@H](C(=O)Nc1ccc2ccccc2c1)[C@@H]1C[C@@]1(C)[C@@H](NC(=O)c1ccccc1)c1ccccc1", "Potency": "inactive"},
      {"smiles": "C(=N\\Nc1ccc2nncn2n1)/c1ccccn1", "Potency": "active: 5.8 µM"},
      {"smiles": "O=C(Cc1nc2ccccc2[nH]c1=O)c1ccccc1", "Potency": "inconclusive: 9.2 µM [activator, partial curve]"},
      {"smiles": "CCOC(=O)c1cnn(-c2ncnc3sc(CC)cc23)c1N", "Potency": "inconclusive: 10.3 µM [activator, partial curve, poor fit]"},
      {"smiles": "Cc1ccc2cc(C#N)c(NCCCNC(=O)C3CCCO3)nc2c1", "note": "(configuration not stated)", "Potency": "inconclusive: 11.6 µM [inhibitor, partial curve, poor fit]"},
      {"smiles": "C=CCn1c(Cc2nc3ccccc3[nH]2)n[nH]c1=S", "Potency": "inconclusive: 23.1 µM [activator, partial curve, poor fit]"},
      {"smiles": "CN1CCc2ccc(NC(=O)c3ccc(C(F)(F)F)cc3)cc2C1", "Potency": "inconclusive: 11.6 µM [activator, partial curve, poor fit]"},
      {"smiles": "Cc1cc(NC(=O)NC2(C(F)(F)F)Oc3ccc(Cl)cc3O2)no1", "note": "(configuration not stated)", "Potency": "inconclusive: 18.4 µM [inhibitor, partial curve, poor fit]"},
      {"smiles": "NNc1ncnc2c1cnn2-c1ccccc1", "Potency": "inactive"},
      {"smiles": "COc1cc(C(=O)NCc2cccc3ccccc23)cc(Cl)c1OC", "Potency": "inconclusive: 35.5 µM [inhibitor, partial curve, poor fit]"},
      {"smiles": "CC(C)C(=O)Nc1sc2c(c1C#N)CCCCC2", "Potency": "inconclusive: 11.6 µM [activator, partial curve]"},
      {"smiles": "Cc1ccc(NC(=O)c2ccc3ncsc3c2)cc1S(=O)(=O)N(C)C", "Potency": "inconclusive: 1.83 µM [activator, partial curve]"},
      {"smiles": "N/C(Cc1ccc([N+](=O)[O-])cc1)=N\\OC(=O)c1ccc(Br)cc1", "Potency": "inconclusive: 23.1 µM [activator, single point]"},
      {"smiles": "CCCn1nc(Oc2nc(NCC)nc(NCC)n2)ccc1=O", "Potency": "inconclusive: 18.4 µM [activator, single point]"},
      {"smiles": "CCN(Cc1ccccc1)C(=O)CCc1nnc(CCCc2ccccc2)o1", "Potency": "inconclusive: 16.4 µM [activator, partial curve]"},
      {"smiles": "O=C(NC1=NCCS1)c1cc(-c2cccs2)nc2ccccc12", "Potency": "inconclusive: 0.0052 µM [inhibitor, full curve, poor fit]"},
      {"smiles": "COc1ccc2nc(N)sc2c1", "Potency": "inconclusive: 0.164 µM [activator, full curve, poor fit]"},
      {"smiles": "O=C1CCc2cc(S(=O)(=O)NC3CCCCC3)ccc2N1", "Potency": "inactive"},
      {"smiles": "COC(=O)c1ccccc1NC(NC(=O)c1ccco1)C(=O)c1ccc(C)cc1", "note": "(configuration not stated)", "Potency": "inconclusive: 20 µM [activator, single point]"},
      {"smiles": "O=C(NC(Cc1c[nH]c2ccccc12)C(=O)N/N=C/c1cccc2ccccc12)c1cccs1", "note": "(configuration not stated)", "Potency": "inconclusive: 29.1 µM [inhibitor, single point]"},
      {"smiles": "O=C(NCC1(N2CCCCC2)CCCCC1)c1ccc(NS(=O)(=O)c2ccc(F)cc2)cc1", "Potency": "inactive"},
      {"smiles": "O=C(c1cn(-c2ccccc2)nc1-c1cc2ccccc2oc1=O)N1CCOCC1", "Potency": "active: 7.3 µM"},
      {"smiles": "COCCCNC(=O)CCC(=O)NNc1nc2ccccc2c2nc(C)nn12", "Potency": "inactive"}
    ]}
  ]
}
